We go through three molecules from article PMC10598014.

Sequences of proteins named here, by UniProt entry; tags and fusion partners are left off.
UniProt Q9BWT3: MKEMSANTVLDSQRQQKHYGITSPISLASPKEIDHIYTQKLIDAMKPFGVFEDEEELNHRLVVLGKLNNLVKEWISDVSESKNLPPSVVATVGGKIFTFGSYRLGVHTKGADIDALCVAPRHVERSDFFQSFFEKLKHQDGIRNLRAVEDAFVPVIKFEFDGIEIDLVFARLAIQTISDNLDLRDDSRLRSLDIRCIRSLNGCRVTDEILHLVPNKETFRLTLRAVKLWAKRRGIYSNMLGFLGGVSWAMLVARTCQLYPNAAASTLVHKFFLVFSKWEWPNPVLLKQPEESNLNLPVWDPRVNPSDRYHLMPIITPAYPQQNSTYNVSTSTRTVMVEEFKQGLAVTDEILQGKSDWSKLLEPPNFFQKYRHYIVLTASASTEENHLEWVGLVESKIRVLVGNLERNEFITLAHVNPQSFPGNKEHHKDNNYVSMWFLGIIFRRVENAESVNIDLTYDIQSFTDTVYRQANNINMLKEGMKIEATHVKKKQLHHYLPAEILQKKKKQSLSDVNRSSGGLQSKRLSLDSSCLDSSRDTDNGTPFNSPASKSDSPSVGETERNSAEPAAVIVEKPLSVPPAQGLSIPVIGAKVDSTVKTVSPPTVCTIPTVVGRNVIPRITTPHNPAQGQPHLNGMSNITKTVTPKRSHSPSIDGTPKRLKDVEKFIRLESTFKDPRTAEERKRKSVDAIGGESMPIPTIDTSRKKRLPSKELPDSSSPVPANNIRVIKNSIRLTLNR

These are yes or no findings as the source states them, for the method shown. Binding seen in cells or lysates may run through a third protein. Some results given as binding are weak or reduced against the parent protein; the word gives no strength.

Test [1] has as its target polyA polymerase gamma (PAPγ) (human (endogenous in HEK-293T and HeLa)) (UniProt Q9BWT3). In words: co-IP; endogenous proteins; HeLa nuclear extracts treated with micrococcal nuclease; 50 mM tris pH 7.6, 150 mM NaCl, 1% NP-40; 2 μg antibody overnight at 4 °C, Protein A Dynabeads; IgG control; immunoblot. A general note: In western blotting, separated proteins are transferred to a membrane and probed.

Test [2] shares this target. In words: co-IP; as the co-IP from HeLa nuclear extracts, immunoprecipitates incubated with RNAse A/T cocktail (1.2 μL/mL of immunoprecipitation buffer) for 30 min at RT, followed by 5 washes.
Test [3] deals with T1, MTR4 (human (endogenous in HEK-293T and HeLa)) (UniProt P42285).
T1 sequence: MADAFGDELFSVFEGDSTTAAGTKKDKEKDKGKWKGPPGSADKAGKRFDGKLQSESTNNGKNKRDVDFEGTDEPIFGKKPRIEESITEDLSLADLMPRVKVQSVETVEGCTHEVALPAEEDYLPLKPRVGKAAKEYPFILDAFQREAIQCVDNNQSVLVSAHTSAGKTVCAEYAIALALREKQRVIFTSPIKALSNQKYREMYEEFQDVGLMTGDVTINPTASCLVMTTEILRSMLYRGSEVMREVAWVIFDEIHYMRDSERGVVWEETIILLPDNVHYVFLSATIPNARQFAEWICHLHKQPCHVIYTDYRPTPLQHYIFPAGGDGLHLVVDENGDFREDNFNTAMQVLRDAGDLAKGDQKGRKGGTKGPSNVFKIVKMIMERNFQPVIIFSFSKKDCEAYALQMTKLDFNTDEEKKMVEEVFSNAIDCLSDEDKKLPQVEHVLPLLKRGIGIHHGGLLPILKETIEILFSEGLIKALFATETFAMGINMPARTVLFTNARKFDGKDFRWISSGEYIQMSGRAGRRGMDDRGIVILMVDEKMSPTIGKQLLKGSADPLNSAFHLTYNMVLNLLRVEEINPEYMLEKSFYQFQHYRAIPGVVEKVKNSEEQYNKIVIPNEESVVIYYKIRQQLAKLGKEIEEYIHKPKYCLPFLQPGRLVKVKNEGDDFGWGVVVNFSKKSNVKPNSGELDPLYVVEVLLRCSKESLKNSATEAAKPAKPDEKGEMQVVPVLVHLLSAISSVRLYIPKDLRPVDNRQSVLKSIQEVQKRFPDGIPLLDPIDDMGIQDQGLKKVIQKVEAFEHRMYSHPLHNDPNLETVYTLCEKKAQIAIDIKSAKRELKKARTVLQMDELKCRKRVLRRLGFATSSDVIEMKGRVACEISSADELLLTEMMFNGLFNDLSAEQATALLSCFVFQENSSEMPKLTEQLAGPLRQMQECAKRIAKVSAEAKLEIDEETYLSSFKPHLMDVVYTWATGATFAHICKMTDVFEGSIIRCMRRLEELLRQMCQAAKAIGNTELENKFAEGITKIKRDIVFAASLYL
In words: co-IP; HeLa cell lysates in RIP buffer (20 mM HEPES pH 7.5, 150 mM NaCl, 2.5 mM MgCl2, 250 mM sucrose, 0.05% NP-40, 0.5% Triton X-100, RNasin); 2 μg antibody overnight at 4 °C, Dynabeads Protein A; immunoprecipitates of the RIP experiment.

Test [4] addresses T2, ZFC3H1 (human (endogenous in HeLa)), O60293.
T2 chain: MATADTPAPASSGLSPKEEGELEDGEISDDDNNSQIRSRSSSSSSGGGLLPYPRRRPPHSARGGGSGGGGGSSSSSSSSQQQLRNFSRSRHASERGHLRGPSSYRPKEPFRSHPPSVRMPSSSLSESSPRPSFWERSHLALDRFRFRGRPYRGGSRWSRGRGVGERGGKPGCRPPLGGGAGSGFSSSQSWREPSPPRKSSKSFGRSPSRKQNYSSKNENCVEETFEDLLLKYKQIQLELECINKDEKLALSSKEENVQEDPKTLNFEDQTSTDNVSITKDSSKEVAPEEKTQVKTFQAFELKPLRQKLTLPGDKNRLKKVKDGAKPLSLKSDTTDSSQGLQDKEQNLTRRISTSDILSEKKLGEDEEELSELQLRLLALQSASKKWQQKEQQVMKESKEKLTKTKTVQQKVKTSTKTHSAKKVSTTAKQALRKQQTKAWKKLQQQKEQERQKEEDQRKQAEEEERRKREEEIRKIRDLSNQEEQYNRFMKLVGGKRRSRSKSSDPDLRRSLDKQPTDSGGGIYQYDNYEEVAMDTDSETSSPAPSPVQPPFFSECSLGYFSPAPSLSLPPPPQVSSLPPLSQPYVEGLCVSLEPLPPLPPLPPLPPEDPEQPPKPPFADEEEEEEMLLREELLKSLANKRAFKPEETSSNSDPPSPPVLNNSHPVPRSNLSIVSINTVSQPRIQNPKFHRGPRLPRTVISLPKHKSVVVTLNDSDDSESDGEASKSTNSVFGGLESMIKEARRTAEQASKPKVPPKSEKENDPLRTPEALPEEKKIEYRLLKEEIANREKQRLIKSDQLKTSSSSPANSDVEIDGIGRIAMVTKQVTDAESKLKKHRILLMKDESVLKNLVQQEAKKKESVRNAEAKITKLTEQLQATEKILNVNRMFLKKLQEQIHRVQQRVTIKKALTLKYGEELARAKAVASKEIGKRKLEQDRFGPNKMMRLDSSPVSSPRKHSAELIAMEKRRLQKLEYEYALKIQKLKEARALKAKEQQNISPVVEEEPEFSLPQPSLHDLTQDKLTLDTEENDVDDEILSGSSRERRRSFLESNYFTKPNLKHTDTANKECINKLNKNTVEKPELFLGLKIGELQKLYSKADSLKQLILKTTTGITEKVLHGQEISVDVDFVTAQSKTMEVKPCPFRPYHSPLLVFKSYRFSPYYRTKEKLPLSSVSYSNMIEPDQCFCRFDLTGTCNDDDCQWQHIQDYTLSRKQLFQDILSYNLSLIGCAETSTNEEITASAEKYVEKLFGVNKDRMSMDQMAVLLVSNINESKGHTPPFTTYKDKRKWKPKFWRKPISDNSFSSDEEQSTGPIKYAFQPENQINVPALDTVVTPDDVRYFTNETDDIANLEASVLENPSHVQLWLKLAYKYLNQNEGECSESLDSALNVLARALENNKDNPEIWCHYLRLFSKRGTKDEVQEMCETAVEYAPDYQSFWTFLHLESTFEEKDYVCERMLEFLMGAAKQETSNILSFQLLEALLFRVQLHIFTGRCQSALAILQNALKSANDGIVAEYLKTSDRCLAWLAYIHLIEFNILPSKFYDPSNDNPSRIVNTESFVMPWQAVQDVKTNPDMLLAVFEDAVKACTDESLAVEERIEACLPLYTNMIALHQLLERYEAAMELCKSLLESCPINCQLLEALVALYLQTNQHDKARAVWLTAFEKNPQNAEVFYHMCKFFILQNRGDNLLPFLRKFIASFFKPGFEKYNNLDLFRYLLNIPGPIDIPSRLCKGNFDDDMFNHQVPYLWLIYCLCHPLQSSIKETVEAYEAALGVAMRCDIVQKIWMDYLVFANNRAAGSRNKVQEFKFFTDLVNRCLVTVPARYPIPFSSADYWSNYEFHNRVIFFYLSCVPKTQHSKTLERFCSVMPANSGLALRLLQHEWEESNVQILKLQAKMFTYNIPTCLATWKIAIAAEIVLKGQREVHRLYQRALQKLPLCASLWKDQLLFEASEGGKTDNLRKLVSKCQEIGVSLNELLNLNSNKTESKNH
Description: co-IP; endogenous proteins; HeLa nuclear extracts treated with micrococcal nuclease; 50 mM tris pH 7.6, 150 mM NaCl, 1% NP-40; 2 μg antibody overnight at 4 °C, Protein A Dynabeads; IgG control; immunoblot. As to conditions: remark: other sources report otherwise.

For test [5], the target named is polyA polymerase gamma (PAPγ) (human (endogenous in HEK-293T and HeLa)) (UniProt Q9BWT3). Description: condition: only with RNAse A/T cocktail (1.2 μL/mL of immunoprecipitation buffer); co-IP; as the co-IP from HeLa nuclear extracts, immunoprecipitates incubated with RNAse A/T cocktail (1.2 μL/mL of immunoprecipitation buffer) for 30 min at RT, followed by 5 washes.

Test [6] concerns the target ZFC3H1 (human (endogenous in HeLa)) (UniProt O60293). The description is as above.

Regarding ZFC3H1 (from UniProt O60293 1-1989), the binding entry in test [1], in test [2] and in test [3] was “binds” throughout.

B1: PABPN1, Q86U42 1-306 (protein)
chain: MAAAAAAAAAAGAAGGRGSGPGRRRHLVPGAGGEAGEGAPGGAGDYGNGLESEELEPEELLLEPEPEPEPEEEPPRPRAPPGAPGPGPGSGAPGSQEEEEEPGLVEGDPGDGAIEDPELEAIKARVREMEEEAEKLKELQNEVEKQMNMSPPPGNAGPVIMSIEEKMEADARSIYVGNVDYGATAEELEAHFHGCGSVNRVTILCDKFSGHPKGFAYIEFSDKESVRTSLALDESLFRGRQIKVIPKRTNRPGISTTDRGFPRARYRARTTNYNSSRSRFYSGFNSRPRGRVYRGRARATSWYSPY
Consider B1, for which the binding entry in test [4] is “binds”.

B2: PABPN1 (protein, UniProt Q86U42 1-306)
chain: B1 chain
As to B2, the binding result is reported as “binds” in test [1], “no binding” in test [5] and “no binding” in test [6].
